Measurements: US9458118B2, “Sodium channel modulators for the treatment of pain and diabetes” (CHROMOCELL CORPORATION, priority 2013, dated 2016)
Some of these results come from one statement about several compounds together. Some ranges recur; such a range may be that of the whole group of compounds.

By UniProt entry, the sequences of proteins in these tests, tags left out.
UniProt Q15858, whole entry: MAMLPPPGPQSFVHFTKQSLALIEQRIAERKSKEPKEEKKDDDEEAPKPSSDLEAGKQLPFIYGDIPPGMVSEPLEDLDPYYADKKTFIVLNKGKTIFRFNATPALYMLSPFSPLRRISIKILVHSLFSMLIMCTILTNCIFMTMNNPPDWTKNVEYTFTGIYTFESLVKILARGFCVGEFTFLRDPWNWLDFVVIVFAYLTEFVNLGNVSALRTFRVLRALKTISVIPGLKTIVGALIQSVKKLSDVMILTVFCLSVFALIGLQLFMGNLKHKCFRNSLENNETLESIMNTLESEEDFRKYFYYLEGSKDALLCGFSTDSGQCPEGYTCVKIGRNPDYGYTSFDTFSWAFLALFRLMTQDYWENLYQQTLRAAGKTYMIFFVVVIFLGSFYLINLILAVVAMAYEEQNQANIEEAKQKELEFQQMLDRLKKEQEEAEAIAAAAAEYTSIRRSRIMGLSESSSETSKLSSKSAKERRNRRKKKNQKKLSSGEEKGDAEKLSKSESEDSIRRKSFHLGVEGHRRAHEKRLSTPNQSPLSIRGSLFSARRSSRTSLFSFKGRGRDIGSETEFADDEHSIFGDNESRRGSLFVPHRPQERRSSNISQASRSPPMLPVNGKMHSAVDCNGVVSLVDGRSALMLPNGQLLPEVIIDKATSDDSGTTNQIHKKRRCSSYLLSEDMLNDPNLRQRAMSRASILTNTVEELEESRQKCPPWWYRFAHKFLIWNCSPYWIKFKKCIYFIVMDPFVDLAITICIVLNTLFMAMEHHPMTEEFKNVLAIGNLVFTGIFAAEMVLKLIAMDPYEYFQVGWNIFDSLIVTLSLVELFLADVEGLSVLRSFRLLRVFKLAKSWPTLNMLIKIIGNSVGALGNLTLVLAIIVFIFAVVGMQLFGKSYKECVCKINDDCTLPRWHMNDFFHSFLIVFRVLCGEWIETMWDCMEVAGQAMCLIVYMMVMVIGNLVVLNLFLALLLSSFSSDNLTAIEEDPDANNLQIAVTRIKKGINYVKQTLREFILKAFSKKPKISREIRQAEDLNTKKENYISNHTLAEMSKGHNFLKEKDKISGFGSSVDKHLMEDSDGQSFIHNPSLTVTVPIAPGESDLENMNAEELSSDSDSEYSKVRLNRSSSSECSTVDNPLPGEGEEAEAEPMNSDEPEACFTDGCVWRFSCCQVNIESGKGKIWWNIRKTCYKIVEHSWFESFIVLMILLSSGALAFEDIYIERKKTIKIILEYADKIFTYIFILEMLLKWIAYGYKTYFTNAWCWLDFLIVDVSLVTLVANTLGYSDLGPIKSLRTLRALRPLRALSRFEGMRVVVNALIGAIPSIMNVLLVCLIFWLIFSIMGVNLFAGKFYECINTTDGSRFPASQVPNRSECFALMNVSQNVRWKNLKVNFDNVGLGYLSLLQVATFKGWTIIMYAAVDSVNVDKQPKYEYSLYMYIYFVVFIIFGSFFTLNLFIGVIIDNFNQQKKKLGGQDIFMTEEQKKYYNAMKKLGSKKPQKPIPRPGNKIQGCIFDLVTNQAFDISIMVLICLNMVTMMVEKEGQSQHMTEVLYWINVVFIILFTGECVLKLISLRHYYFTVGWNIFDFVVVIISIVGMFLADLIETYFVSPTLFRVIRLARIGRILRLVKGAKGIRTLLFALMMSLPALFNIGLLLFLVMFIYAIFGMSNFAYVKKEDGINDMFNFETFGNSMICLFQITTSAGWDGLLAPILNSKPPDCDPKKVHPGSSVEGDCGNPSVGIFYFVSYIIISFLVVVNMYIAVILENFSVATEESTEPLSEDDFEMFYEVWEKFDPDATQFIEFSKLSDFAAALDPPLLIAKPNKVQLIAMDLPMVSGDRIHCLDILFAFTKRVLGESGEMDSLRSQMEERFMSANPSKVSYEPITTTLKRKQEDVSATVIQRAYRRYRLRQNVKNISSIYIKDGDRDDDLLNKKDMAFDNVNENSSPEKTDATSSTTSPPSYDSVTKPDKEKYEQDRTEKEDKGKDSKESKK

Columns and labels:
rat = test: Formalin test (pain behaviors); type: in vivo; details: doses of 3 to 30 mg/kg, intraperitoneal route
Sprague-Dawley rats [1] = test: Streptozotocin (STZ)-induced model of diabetic neuropathy, behavioral tests; type: in vivo, rat; details: expected after 9 days of repeated dosing
Sprague-Dawley rats [2] = test: Partial sciatic nerve ligation (PSNL) model, behavioral tests; type: in vivo, rat; details: normally expected at 2 hours post dose
Excerpt: 250-350 g male Sprague-Dawley rats from appropriate animal resources were anesthetized with 2.5% isoflurane. A hind leg was shaved, and the skin was sterilized with 0.5% iodine and 75% alcohol. All surgical instruments were sterilized before surgery and between animals. An incision (1 cm) was made at the middle of the thigh in parallel with the muscle and sciatic nerve distribution. The muscle was exposed and dissected at the joint of two muscles (biceps femoris) indicated by the light colored (white) fascia line. […]
The analgesic effect of the test compound was expressed as a percent recovery (% Recovery) relative to the sham control group baseline and calculated according to the formula: % Recovery=100%−{[(sham mean-test compound mean)/(sham mean-vehicle mean)]×100%} wherein “sham mean” refers to average score in the sham-operated group; “test compound mean” refers to average score in the PSNL-group (animals with partial sciatic nerve ligation) or diabetic group (animals treated with STZ) treated with a test compound; “vehicle mean” refers to average score in the PSNL-group or diabetic group treated with vehicle only. […]
Animals were placed under clear plastic boxes above a wire mesh floor, which allowed full access to the paws. […] Mechanical paw withdrawal thresholds (PWTs) were measured with the up-down testing paradigm. […]

NaV1.7 = molecular target: T1, NaV1.7 (Homo sapiens, UniProt Q15858); test: Patchliner electrophysiological in-vitro assay (NaV1.7); type: cell-based; details: Patchliner patch clamp, HEK293 cells, holding potential V1/2
T1 construct: expressed in transfected cells

SMILES	reduction in pain response (formalin assay phase 2) relative to vehicle control (rat)	reduction in pain response (formalin assay, phase 1) relative to vehicle control (rat)	reversal of the tactile allodynia relative to vehicle control (Sprague-Dawley rats [1])	reversal of the tactile allodynia relative to vehicle control (Sprague-Dawley rats [2])	IC50 (NaV1.7)
O=C(O)CCNC(=O)c1cc(-c2cc(Cl)ccc2Oc2cc(F)c(S(=O)(=O)Nc3ncns3)cc2Cl)ccn1 [Compound 1, 3-(4-(2-(4-(N-(1,2,4-thiadiazol-5-yl)sulfamoyl)-2-chloro-5-fluorophenoxy)-5-chlorophenyl)picolinamido)propanoic acid]	29-73%	24-78%	–	–	–
O=C(O)CNC(=O)c1cc(-c2cc(Cl)ccc2Oc2cc(F)c(S(=O)(=O)Nc3ncns3)cc2Cl)ccn1 [Compound 2, 2-(4-(2-(4-(N-(1,2,4-thiadiazol-5-yl)sulfamoyl)-2-chloro-5-fluorophenoxy)-5-chlorophenyl)picolinamido)acetic acid]	29-73%	24-78%	–	–	–
C[C@@H](NC(=O)c1cc(-c2cc(Cl)ccc2Oc2cc(F)c(S(=O)(=O)Nc3ncns3)cc2Cl)ccn1)C(=O)O [Compound 6, (R)-2-(4-(2-(4-(N-(1,2,4-thiadiazol-5-yl)sulfamoyl)-2-chloro-5-fluorophenoxy)-5-chlorophenyl)picolinamido)propanoic acid]	29-73%	24-78%	–	–	–
C[C@H](NC(=O)c1cc(-c2cc(Cl)ccc2Oc2cc(F)c(S(=O)(=O)Nc3ncns3)cc2Cl)ccn1)C(=O)O [Compound 8, (S)-2-(4-(2-(4-(N-(1,2,4-thiadiazol-5-yl)sulfamoyl)-2-chloro-5-fluorophenoxy)-5-chlorophenyl)picolinamido)propanoic acid]	29-73%	24-78%	–	–	–
O=C(O)CCNCCCc1cc(Cl)ccc1Oc1cc(F)c(S(=O)(=O)Nc2ncns2)cc1Cl [Compound 12, 3-((3-(2-(4-(N-(1,2,4-thiadiazol-5-yl)sulfamoyl)-2-chloro-5-fluorophenoxy)-5-chlorophenyl)propyl)amino)propanoic acid]	29-73%	24-78%	–	–	–
O=C(O)CCNCCCc1cc(Cl)ccc1Oc1cc(F)c(S(=O)(=O)Nc2cscn2)cc1Cl [Compound 15, 3-((3-(5-chloro-2-(2-chloro-5-fluoro-4-(N-(thiazol-4-yl)sulfamoyl)phenoxy)phenyl)propyl)amino)propanoic acid]	–	–	Up to 90%	–	–
NC(=O)CNCCCc1cc(Cl)ccc1Oc1cc(F)c(S(=O)(=O)Nc2cscn2)cc1Cl [Compound 49, 2-((3-(5-chloro-2-(2-chloro-5-fluoro-4-(N-(thiazol-4-yl)sulfamoyl)phenoxy)phenyl)propyl)amino)acetamide]	–	–	Up to 90%	Up to 90%	–
C#CCN(CCCc1cc(Cl)ccc1Oc1cc(F)c(S(=O)(=O)Nc2nccs2)cc1Cl)CC(=O)O [Compound 54, 2-((3-(5-chloro-2-(2-chloro-5-fluoro-4-(N-(thiazol-2-yl)sulfamoyl)phenoxy)phenyl)propyl)(prop-2-yn-1-yl)amino)acetic acid]	–	–	–	Up to 90%	< 100 nM
